The nature of the experiment: qHTS Assay for Lipid Storage Modulators in Drosophila S3 Cells.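 For cell number change: cells counted by Cell Tracker Red CMTPX staining in the red channel.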 Conditions: BODIPY lipid droplet fluorescence, 18-24 h; for cell number change: measured here: cell count max response, cells fed with added oleic acid. The procedure, abridged: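 Drosophila S3 cells got compounds at several concentrations plus oleic acid (400 uM solution). Laser-scanning cytometry with 488 nm excitation read lipid droplets at 500-530 nm and cells at 575-640 nm. Percent activity was relative to 20 uM Triacsin C.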

The mark [1] stands for this setting: measured here: lipid fluorescence (Fed channel) AC50, cells fed with added oleic acid.
Where [2] appears, read: measured here: cell number channel AC50, cells fed with added oleic acid.

Some of the results follow. These are further read-outs of the screen, such as a control signal, another cell line or another target. No call is given for them. Most of these compounds were active or inconclusive in the main read-out, so they are no random draw. Words in brackets tell the shape of the fitted curve; partial curves, single points and poor fits give uncertain potencies.

For `Cc1cc(OC(=O)c2ccccc2C)c([N+](=O)[O-])c(=O)[nH]1`, the cell number change was -5.66%. The AC50 under setting [1] was 3.66 µM [rising, single point]. Turning to `COCCOC(=O)C1=C(C)NC(=O)CC1c1cc2c(cc1Br)OCO2` (configuration not stated), the AC50 under setting [2] is 1.3 µM [rising, full curve] and the AC50 under setting [1] is 0.82 µM [rising, full curve].

Take `C/C(=N\NC(=O)C1(C)CC1(Br)Br)c1cccc(NC(=O)C(C)(C)C)c1` (configuration not stated): the cell number change is -13.4%. Further, under setting [2], the AC50 is 2.31 µM [falling, single point]. Also, the half-maximal activity concentration (AC50) under setting [1] is 13 µM [falling, partial curve, poor fit].

Consider `COc1cccc2c(=S)c(CCC(C)=O)c(C)[nH]c12`, for which the cell number change turned out to be 1.05%. As for `CCCn1c(N2CCN(C(=O)N3CCCCC3)CC2)nc2ccccc21`, the cell number change was -17%. For the same molecule, under setting [1], the AC50 was 3.26 µM [rising, single point]. In the case of `COC(=O)C1CN(S(=O)(=O)c2ccc(NC(C)=O)cc2)CCS1` (configuration not stated), the cell number change was 22.9%. The concentration at half-maximal activity (AC50) under setting [1] is 1.16 µM [rising, single point]. Regarding `Cc1ccc2nc(-c3cccc(N)c3)oc2c1`, the AC50 under setting [1] was 16.4 µM [rising, partial curve]. Regarding `CCn1cc(C(=O)NC2CCC(C)CC2)c(=O)c2cc(S(=O)(=O)N3CCCCC3)ccc21` (configuration not stated), the half-maximal activity concentration (AC50) by setting is: under setting [2], 1.64 µM [rising, partial curve]; under setting [1], 2.06 µM [rising, partial curve]. Turning to `O=C(COC(=O)C12CC3CC(CC(O)(C3)C1)C2)NC12CC3CC(CC(C3)C1)C2`, the cell number change was -65.7%. The AC50 under setting [2] was 11.6 µM [falling, partial curve]. Take `Cc1cccc(N2CCN(C(=O)C3COc4ccccc4O3)CC2)c1C` (configuration not stated): the cell number change was 5.75%.

`O=C(C(Cc1ccccc1)n1cccc1)N1CCN(Cc2ccccc2)CC1` (configuration not stated): the cell number change turned out to be 4.22%.

Consider `CCOC(=O)c1c(NC(=O)c2cccs2)sc2c1CCN(C(=O)OCC)C2`, for which the cell number change is -33.7%. Moreover, the half-maximal activity concentration (AC50) under setting [2] is 29.1 µM [falling, single point]. On to `O=C1c2ccccc2C(=O)N1SC1CCCCC1`, for which the cell number change is -66.1%. Besides, under setting [2], the AC50 is 18.4 µM [falling, single point]. Under setting [1], the AC50 is 29.1 µM [falling, single point]. Turning to `COc1ccc(NS(=O)(=O)c2cc(NC(=O)c3nc4nc(C)cc(C)n4n3)ccc2C)cc1`, the cell number change is 3.69%. Besides, the AC50 under setting [1] is 0.231 µM [rising, full curve, poor fit].

On to `CN1C(=O)c2cccc3c(S(=O)(=O)N4CCCC4C(=O)O)ccc1c23` (configuration not stated), for which the cell number change was found to be 14.5%. Still for that read-out and setting: the figure for `O=C(/C=C/c1cccs1)N1CCC2(CC1)Oc1ccc(F)cc1C(=O)C21CC(c2ccc(Cl)cc2)=NO1` (configuration not stated) is 9.08%. As to `Cc1ccc(S(=O)(=O)N2CCC(C(=O)Nc3ccc4c(c3)OCO4)CC2)cc1`, the cell number change was -5.55%. For the same molecule, the AC50 under setting [1] is 6.51 µM [rising, single point].

As for `CC1(C)CC(NC(=O)c2ccc3c(c2)OCO3)CC(C)(C)N1`, the cell number change was 1.69%. In addition, under setting [1], the AC50 is 6.51 µM [falling, single point]. Regarding `COc1cccc(-c2nn3c(-c4cc(C)[nH]n4)nnc3s2)c1`, the cell number change stood at 3.54%. Same read-out and setting: as for `CCOC(=O)COc1coc(CN2CCN(c3ccccc3)CC2)cc1=O`, the figure is 3.68%.

Turning to `Cc1ccccc1C(=O)NC1CCN(CC(=O)Nc2nccs2)CC1`, under setting [2], the concentration at half-maximal activity (AC50) is 0.58 µM [rising, single point]. For the molecule `CCOC(=O)CSc1ncnc2c(C(=O)OCC)c3n(c12)CCC3`, the cell number change is -8.75%. Regarding `Cn1c(SCc2ccc(F)cc2)nnc1-c1ccccn1`, the AC50 was 6.51 µM [rising, single point] under setting [2] and 7.31 µM [rising, partial curve, poor fit] under setting [1]. For the molecule `CN(C)c1ccc(CNn2cnnc2)cc1`, the cell number change was -26.3%. Also, the AC50 under setting [2] is 0.651 µM [falling, full curve, poor fit]. Further, the AC50 under setting [1] was 25.9 µM [falling, single point]. Turning to `Cc1cc(S(=O)(=O)NCC(C)C)ccc1OCC(=O)NCc1ccccn1`, the cell number change is -0.957%.

Turning to `O=C(Nc1ccc(NC(=O)c2cccnc2Cl)cc1)c1cccc(Cl)c1`, the cell number change was 107%. Besides, the AC50 under setting [2] was 29.1 µM [rising, single point]. In addition, under setting [1], the AC50 was 0.206 µM [rising, single point]. Take `Cc1c(C(=O)NCc2ccco2)sc2nc(-c3ccccc3)cn12`: the cell number change is -52.7%. Under setting [2], the concentration at half-maximal activity (AC50) is 29.1 µM [falling, single point]. Regarding `Cc1ccc2c(c1)cc(C(=O)NCc1ccccc1)n2C`, the cell number change was -10.7%. The AC50 under setting [1] was 0.58 µM [rising, single point]. `CC(C)c1ccccc1NC(=O)c1ccccc1NC(=O)C1CCCCC1`: the cell number change is -1.19%. The half-maximal activity concentration (AC50) under setting [1] is 2.59 µM [rising, partial curve]. On to `COc1cc(-c2nc3ccc(C)cn3c2NCc2ccccc2)ccc1SC1CCCCC1`, for which the cell number change was -76.9%. Moreover, the AC50 under setting [2] was 1.84 µM [falling, partial curve]. The concentration at half-maximal activity (AC50) under setting [1] is 1.84 µM [falling, partial curve]. Consider `CCn1c2ccccc2c2cc(NC(=O)COc3ccccc3)ccc21`, for which the cell number change turned out to be 16.6%. Besides, under setting [1], the concentration at half-maximal activity (AC50) was 0.326 µM [rising, full curve].

Take `O=S(=O)(c1ccc(=S)[nH]c1)N1CCCCC1`: the cell number change worked out at 13.5%. The concentration at half-maximal activity (AC50) under setting [1] is 29.1 µM [rising, single point]. Regarding `CCCCN(CC)C(=O)Cn1ncc2c3ccccc3n(CCC)c2c1=O`, the cell number change was -5.67%. Further, under setting [1], the concentration at half-maximal activity (AC50) was 0.58 µM [falling, single point]. `Cc1[nH]n(-c2ccc(Cl)cc2)c(=O)c1/C=N/c1nnc(-c2ccccc2)s1`: under setting [1], the AC50 is 14.6 µM [falling, single point]. With `O=C(Nc1ccc(N2CCN(C(=O)c3ccco3)CC2)c(Cl)c1)c1c(F)c(F)c(F)c(F)c1F`, the cell number change is -149%. Further, under setting [2], the AC50 was 29.1 µM [falling, single point]. With `CCCc1cc(-c2ccc(O)c(OCC)c2)c(C#N)c(N)n1`, the cell number change was -6.79%. The same measure, in the same setting: the figure for `Cc1ccc(NCC(=O)N/N=C\c2cccc(O)c2)cc1` is 30.1%. Still for that read-out and setting: the figure for `Cc1nn(Cc2ccccc2)c(Cl)c1/C=C/C(=O)OC(C(=O)NC(N)=O)C(C)C` (configuration not stated) is 1.95%.

Take `CCOc1cc(C(=O)Nc2cccc(C(C)=O)c2)ccc1OCC(=O)N1CCCCC1`: the cell number change came out at 46.9%. For the same molecule, under setting [2], the concentration at half-maximal activity (AC50) is 20.6 µM [rising, single point].

Take `COC(=O)N1C(=O)[C@](c2ccccc2)(C2CCCC2)N1C(=O)OC`: the cell number change was -5.99%. Further, under setting [1], the concentration at half-maximal activity (AC50) was 6.51 µM [rising, single point].

As to `Cc1ccc(NC(=O)c2nc3nccc(C)n3n2)c(C)c1`, the cell number change was -11.7%.

Consider `COc1cc(/C=C2\SC(N)=NC2=O)cc(OC)c1`, for which the cell number change is -12.2%.

Values taken from PubChem BioAssay AID2685 (National Center for Advancing Translational Sciences (NCATS), 2010).
